Results as given in PubChem BioAssay AID1347426 (Functional Genomics Laboratory (NCATS/FGL), 2020).
Among all 31,000 sequences or so, about 1,400 (4.5%) were called active.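 How the source made its calls: active means median seed-adjusted z-score above 1 or below -1; inactive means the rest.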 Some of the results follow.

Experiment: Novel Modifiers of Survival Motor Neuron (SMN) Protein: Gene Identification via Genome-wide siRNA Screen;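 further: luminescence tracks full-length SMN protein made from the SMN2 reporter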
Conditions: HEK293T SMN2-luciferase reporter, siRNA knockdown, 72 h; actives lie on both sides
Summary of the method: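 HEK293T cells stably expressing an SMN2 splicing/cDNA-luciferase reporter were reverse-transfected with a druggable-genome siRNA library and read by luminescence at 72 hours; hits defined by MAD score above 1.0 or below -1.0.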

Sequence | median seed-adjusted z-score
CCACGGAUCUGGUCAGAAUTT against PHYH | inactive: 0.208
CAUUAGUAGUCAGCAAGUATT against THAP2 | inactive: -0.273
GAUCGUGCUCAUUAAUUCATT against SLC29A1 | inactive: 0.117
CCAGCGGAAUUUAUGCGUATT against JAK2 | inactive: 0.163
CCUCCAAUCAAAUCAGUCATT against KCNK2 | inactive: 0.257
CCAUCGUAUGUAACACUGUTT against CLSTN3 | inactive: 0
CACUGGAUCGUAUCUACAATT against ANAPC2 | inactive: -0.116
CUUCAUAUUUGACACCUAUTT against SLC25A26 | inactive: 0.0213
UGUGGACUGAGGUACCCAATT against SNRPD2 | inactive: -0.849
GGCAGAUAUUUAAGCCUAUTT against HDAC2 | active: -1.27
GAACAUGUCUUUAACGGAUTT against TJP2 | inactive: 0.0668
CACGGUCUGUUCUCAGAUUTT against MXD4 | inactive: 0.688
CAGAAGAACUGAGCUAUUUTT against GOSR1 | inactive: -0.252
GCAUCGACAUGGUUUCCGATT against GABRB3 | inactive: 0.0757
AGCUCACGCUGUGCAUGUGTT against TREX2 | inactive: -0.918
GGUUGAUUACUCUAACAAATT against PLK2 | inactive: -0.419
CAAGGACUUCUGUAAUUUUTT against DMRT2 | inactive: -0.344
GCUUGCACUUAAUCUCACATT against LAMB2 | active: 1.12
GCAGUGCUCCGUAGGAUCATT against PNCK | inactive: 0
GCGAGCCGCUUAUGUGGAATT against TCF21 | inactive: -0.15
GACUAUAAGUUUUCGGAGUTT against ACOT9 | inactive: 0.58
GAAAUAGGGCAGAAACAGATT against PARVB | inactive: -0.0102

Sequence | median seed-adjusted z-score
GGAUGACGAUUGUUUAUCATT against BCL11A | inactive: 0.297
AGAUGUUAUUUAUUGAGCUTT against PKIG | inactive: 0.0916
GGAGAUAACUUUCGUAUCATT against CBLB | inactive: 0
CCUUUGCUCCGGAAUCUCUTT against SOX12 | inactive: 0.478
GGAUAGUGAGGAUAAGGAATT against PPP1R15A | inactive: 0.539
CGUGUUCCAUAUAGAGGAATT against CAPN1 | inactive: 0.282
ACGAUCCUCUCAAUCAAAATT against MBD2 | inactive: -0.067
GUUCGAAUGUCACCAGUUATT against RTCD1 | inactive: 0.0794
GCUCUGUGAUUAGAUUGAATT against HEY2 | inactive: -0.0831
GCGCAUGCAUAAGAAUCGATT against ZNF687 | inactive: 0
UCUCUUACCUGGGACCUCATT against FUT3 | inactive: 0.11
GGACACAUCUCGGACAGCATT against KLK9 | inactive: -0.476
CCAUGAGUGUGACUCUCAATT against ZNF599 | inactive: 0.0896
CGGCCUGUUCCUCUACGUATT against SLC39A4 | inactive: 0.0304
CUUUUUACGUGAGCGUAUATT against NAP1L1 | inactive: 0.263
AGACCCUGAUUGUGCGUAUTT against SYT6 | inactive: -0.072
AGCCUCUCAUAGUACCUGATT against FBLN2 | inactive: 0.176
AGCGUAAGCUGAUUGAGCATT against THRA | inactive: 0.13
GCCUCGUGAAGAACACUCATT against CYP1A2 | inactive: 0
GGUUUCAUCCUAGAUCAAATT against MS4A5 | inactive: 0.226
UCUCCUUCUUCGGAACGAATT against SCAMP5 | inactive: -0.303
CUACCUUAUGAAUACUAUUTT against TM9SF4 | inactive: -0.0191

Sequence | median seed-adjusted z-score
GGAGAUAAGUGUAAGUUCUTT against ZC3H15 | inactive: 0.191
CUACAGAAUUUCUUGCGCATT against RASSF3 | inactive: -0.323
GGAACGAGGUGUCAGCUCUTT against RFXANK | inactive: -0.0665
GGCGAUGUUUCGUUGUAAATT against AFF1 | inactive: -0.0394
CAGUCGGUCUUUAAGGAUUTT against PYGB | inactive: -0.292
AGAUGAUGGUUGAACAUCATT against PPP1R1A | inactive: -0.529
CCAGCGCCAUUUAUGAGGATT against HM13 | inactive: 0.134
CCACAAGUCUAAAAUCGUATT against ATP2A2 | inactive: 0.314
GCAUUACACCUGUAGUGUATT against TOMM22 | inactive: 0.486
GCUAUGCAGUGGAUGCUUATT against GPR143 | inactive: 0.366
GGAGUUCCUUUGCAACCAATT against NAB1 | inactive: -0.67
GCAUAGCCCUCAACAAGAATT against IRF6 | active: -1.79
GCCUAUAACAUGCAAACUUTT against HOXC5 | inactive: 0.507
AGUGCAGACUCAAGACUUATT against EPOR | inactive: -0.084
GCUACGGGCUGAGAUUGAATT against KRT76 | inactive: 0.726
GAGUAAAAGAGAUUGGAGATT against SIRPD | inactive: -0.257
GUAACAACAUCAUCCUAGATT against HSPG2 | inactive: 0.478
GCUACUACCUGGUGGUCUATT against SLC19A1 | inactive: 0
UGAGUUCACCGACCUCAAUTT against PSCD2 | inactive: -0.126
GGCUACAACUUAUAGAGAUTT against LRRTM2 | inactive: 0.508
CAGUUUGUAUUGAAGGGUATT against RNF150 | inactive: 0.478
CCAAAUUUGCCUAACCAGATT against RUNX2 | inactive: 0.335

As entered above.
CUUUUUACGUGAGCGUAUATT against NAP1L1 – median seed-adjusted z-score: inactive: 0.263
GCAUUACACCUGUAGUGUATT against TOMM22 – median seed-adjusted z-score: inactive: 0.486
GGUUUCAUCCUAGAUCAAATT against MS4A5 – median seed-adjusted z-score: inactive: 0.226

Part of the list above, reformatted.

| Sequence | median seed-adjusted z-score |
| --- | --- |
| GCUACUACCUGGUGGUCUATT against SLC19A1 | inactive: 0 |
| UGAGUUCACCGACCUCAAUTT against PSCD2 | inactive: -0.126 |

Following part:

Sequence | median seed-adjusted z-score
GCUGAAGGCUUAUGAGUAUTT against KCNV2 | active: -1.13
ACAACUUCGUCACAGAAAATT against AMBP | inactive: -0.679
CCGUAACUCUAGUACAGCUTT against CREB1 | inactive: 0.391
GCUACUCCAUUGUCACUCATT against CD300LF | inactive: -0.264
GCGUUACGCUGAGAGUAAATT against CXCL6 | inactive: 0.802
GAAAGACUCUUACCAUUUUTT against SSBP4 | inactive: 0.254
CAGAUGUUGUGGUAGCUCATT against SIP1 | inactive: -0.443
GGAAAUCGUUUAAUCACAATT against ZNF776 | inactive: -0.394
GAUACGGUCCAGAAGCUUATT against NUF2 | inactive: -0.658
GCACAAUACCGCAUCAGUATT against PFKL | inactive: 0
CAGAGAACCCAUUACAUCATT against HADH | active: 1.11
UGAGGACAAUGAUAACAGUTT against GGA3 | inactive: -0.239
AAACCAAGCCGAUGAAGAATT against NFYA | inactive: 0.437
GCAAGAAAAAUCUAAGGAATT against ZNF57 | inactive: 0
GGAGCACAGAGGCUCAGAATT against TNFRSF13B | inactive: 0.152
AGAUCUAUUUUCGAGGGAATT against UNQ9391 | inactive: -0.312
GGCCUACAACGAAAGUGAATT against CAMKK1 | inactive: 0
GGACGACAAUGACAACUUUTT against FOXRED2 | inactive: 0.0294
AGCUCUACAUUGGCGAUGATT against DUPD1 | inactive: -0.406
GGAUGUUGUUUAUCGAGGATT against MED21 | active: -1.3
CCCUGAACAUACCUACUGATT against BRS3 | inactive: 0.224
GCAUUGACUGGUCCUAUGATT against CPA2 | inactive: 0.0374

Sequence | median seed-adjusted z-score
GUGGAUGGAGUGAAAGUGATT against NOS1AP | inactive: 0.00192
GAGUCGCUUUUGAUGUUGATT against ZNF217 | inactive: -0.872
GCAUGUACCAGGUUCAGUATT against LRFN1 | inactive: 0.605
UCAUUGUGGUUGGAGUUAATT against AP4S1 | inactive: -0.498
GCGUUAUGCUGACCUCUAUTT against NT5C2 | inactive: -0.687
GGAUCAGUAAUAUACCACATT against MTFMT | inactive: -0.0119
GCAUGAGUGUUGAUAGGUATT against AGTR2 | inactive: 0.204
GCACCUACCUUGCAUCUAATT against HSDL2 | inactive: -0.0717
CAGAUUCAUUCAACUUUAATT against DDC | inactive: 0.395
UGCCCACUGUGCAAAUUCATT against RNF215 | inactive: -0.889
GGUUUUCAUUGACCGGUUUTT against ABCF3 | inactive: 0.0759
CAAUGGAACUUUAGAUUAUTT against PCDHA11 | inactive: 0.582
GGAUCCGAAGCAAAGUUGATT against MBD1 | inactive: 0
GGAUAUCAAGUCGGAAAAATT against RSF1 | inactive: 0
GGAGGAGUGUCAAUCCAUATT against SCG5 | inactive: 0.573
GCACAUCUACAAGGAGAUUTT against MAPK13 | inactive: -0.491
GCAGGAUCCUCAAGUAGUATT against NFX1 | inactive: -0.256
GGCAAAAUCUGGACACCAUTT against TFAP4 | inactive: -0.0515
GGACAUCCCUGAGAUUGCATT against EDC4 | inactive: 0
CUGCAACUCUAACUAUUCATT against OMG | inactive: 0.273
